Reference: US20080020984A1, “Crystal Structure of a Receptor-Ligand Complex and Methods of Use” (priority 2006, published 2008)
Not every detail of the peptide structures is certain; ends, links or a residue may be inferred. At least one structure is not confirmed: it was looked up by name or label, or the drawing left a doubt. Where no end group is shown, it is not given here.

Target: T1, human EphB4 ephrin-binding domain, EphB4 (wt), EphB4 (17-196) (Homo sapiens, UniProt P54760)
T1 sequence (P54760 17-196): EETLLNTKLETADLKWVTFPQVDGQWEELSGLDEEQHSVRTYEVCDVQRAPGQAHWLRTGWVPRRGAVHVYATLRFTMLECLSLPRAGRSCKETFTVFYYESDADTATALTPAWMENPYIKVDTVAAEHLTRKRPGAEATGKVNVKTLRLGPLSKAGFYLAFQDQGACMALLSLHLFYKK
Test: Isothermal titration calorimetry (ITC), wild-type EphB4
Settings: Table 5, receptor EphB4 (wt)

Row | Sequence | Kd
1 | LFSPNGPAARAW [LFSP-RAW(I to A)] | 60 µM
2 | LASPNGPIARAW [LFSP-RAW(F to A)] | ≥ 500 µM
